Source: PubChem BioAssay AID256 (DTP/NCI, 2004)
The list shows only some results of the screen, not a fair sample: it gathers tests that were run many times, whatever their T/C, doses with no T/C, and many T/C values between a quarter and a half above the control. Other doses and runs of a compound stand elsewhere. T/C: endpoint of the treated group in % of that of the vehicle group. Some doses have a count of surviving animals in place of a T/C: the source holds a T/C of zero for them, seemingly a mark for toxic or unscored doses. Some doses without a T/C left all or most animals alive at the check, yet need not have been tolerated: the source hardly ever lists a survival T/C far under the control, and the zero likely stands for such cases as well. Survivors were counted at the toxicity check, usually on the fifth day, unless a day is given; later deaths do not show. Schedule codes are those of the source, read here as Q, the interval in days (D) or hours (H), X, the number of doses. For survival time, this PubChem deposit counts one and a half times the control or more as active, and values a quarter to a half above the control carry no call in these data; other NCI protocols may use other cut-offs. Some T/C values carry the count of animals alive at the toxicity check (mostly the fifth day); where none is given, no animal had died by that day. Some entries were tested several times; their values stand side by side, smallest first.

Test system: CD2F1 mice, L1210 leukemia ip, survival T/C
Experiment: NCI In Vivo Anticancer Drug Screen. Data for tumor model L1210 Leukemia (intraperitoneal) in CD2F1 (CDF1) mice
Conditions: higher T/C = longer survival
Method in brief: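 Compound-dosed mice with transplantable tumor versus matched vehicle controls; endpoint ratio T/C reported.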

[1] = T/C endpoint: mean survival time, dose: 400.0 mg/kg/injection, schedule: Q04DX002 (ip), vehicle: saline with Tween-80
[2] = T/C endpoint: mean survival time, dose: 400.0 mg/kg/injection, schedule: Q01DX009 (ip), vehicle: saline with Tween-80
[3] = T/C endpoint: mean survival time, dose: 100.0 mg/kg/injection, schedule: Q04DX003 (ip), vehicle: saline
[4] = T/C endpoint: mean survival time, dose: 400.0 mg/kg/injection, schedule: Q04DX003 (ip), vehicle: saline
[5] = T/C endpoint: mean survival time, dose: 200.0 mg/kg/injection, schedule: Q04DX003 (ip), vehicle: saline with Tween-80
[6] = T/C endpoint: mean survival time, dose: 400.0 mg/kg/injection, schedule: Q04DX003 (ip), vehicle: saline with Tween-80
[7] = T/C endpoint: mean survival time, dose: 150.0 mg/kg/injection, schedule: Q01DX001 (ip), vehicle: saline
[8] = T/C endpoint: mean survival time, dose: 300.0 mg/kg/injection, schedule: Q01DX001 (ip), vehicle: saline
[9] = T/C endpoint: mean survival time, dose: 100.0 mg/kg/injection, schedule: Q04DX002 (ip), vehicle: saline with Tween-80
[10] = T/C endpoint: mean survival time, dose: 200.0 mg/kg/injection, schedule: Q04DX002 (ip), vehicle: saline with Tween-80
[11] = T/C endpoint: mean survival time, dose: 200.0 mg/kg/injection, schedule: Q01DX009 (ip), vehicle: saline with Tween-80

CC(=O)Nc1ccc(N=NN(C)C)cc1
T/C (T/C endpoint: mean survival time, dose: 18.75 mg/kg/injection, schedule: Q01DX009 (ip), vehicle: Klucel (hydroxypropylcellulose) (HPC)): 140 [5 of 6 alive] and 142 % of control [4 of 6 alive]
survivor count (T/C endpoint: mean survival time, dose: 37.5 mg/kg/injection, schedule: Q01DX009 (ip), vehicle: Klucel (hydroxypropylcellulose) (HPC)): 0 of 6
survivor count (T/C endpoint: mean survival time, dose: 75.0 mg/kg/injection, schedule: Q01DX009 (ip), vehicle: Klucel (hydroxypropylcellulose) (HPC)): 0 of 6
survivor count (T/C endpoint: mean survival time, dose: 150.0 mg/kg/injection, schedule: Q01DX009 (ip), vehicle: Klucel (hydroxypropylcellulose) (HPC)): 0 of 6
survivor count (T/C endpoint: mean survival time, dose: 300.0 mg/kg/injection, schedule: Q01DX009 (ip), vehicle: Klucel (hydroxypropylcellulose) (HPC)): 0 of 6

C1CC2(CCC13CO3)CO2 (configuration not stated)
T/C [1]: 134 % of control

O=C(O)c1ccccc1C(=O)Nc1cc(C(F)(F)F)ccc1Cl
survivor count [2]: 2 of 6

Cc1ccc(NC(=O)N(CCCl)N=O)cc1C
T/C (T/C endpoint: mean survival time, dose: 2.5 mg/kg/injection, schedule: Q01DX001 (ip), vehicle: other): 128 % of control
T/C (T/C endpoint: mean survival time, dose: 3.8 mg/kg/injection, schedule: Q01DX001 (ip), vehicle: other): 130 % of control
survivor count (T/C endpoint: mean survival time, dose: 44.0 mg/kg/injection, schedule: Q01DX001 (ip), vehicle: other): 5 of 6
survivor count (T/C endpoint: mean survival time, dose: 66.0 mg/kg/injection, schedule: Q01DX001 (ip), vehicle: other): 3 of 6
survivor count (T/C endpoint: mean survival time, dose: 100.0 mg/kg/injection, schedule: Q01DX001 (ip), vehicle: other): 0 of 6

C[NH-].C[NH-].[Br][Pt+2][Br]
survivor count (T/C endpoint: mean survival time, dose: 20.0 mg/kg/injection, schedule: Q04DX003 (ip), vehicle: water): 10 of 10

c1ccc(-c2nn(-c3ccccc3)[n+](-c3ccccc3)n2)cc1
survivor count (T/C endpoint: mean survival time, dose: 10.0 mg/kg/injection, schedule: Q04DX003 (ip), vehicle: saline): 2 of 6
survivor count (T/C endpoint: mean survival time, dose: 20.0 mg/kg/injection, schedule: Q04DX003 (ip), vehicle: saline): 0 of 6

c1ccc(C[Se]Cc2ccccc2)cc1
survivor count (T/C endpoint: mean survival time, dose: 25.0 mg/kg/injection, schedule: Q01DX009 (ip), vehicle: other): 0 of 6
survivor count (T/C endpoint: mean survival time, dose: 50.0 mg/kg/injection, schedule: Q01DX009 (ip), vehicle: other): 0 of 6
survivor count (T/C endpoint: mean survival time, dose: 100.0 mg/kg/injection, schedule: Q01DX009 (ip), vehicle: other): 0 of 6
survivor count (T/C endpoint: mean survival time, dose: 100.0 mg/kg/injection, schedule: Q04DX003 (ip), vehicle: other): 0 of 6

CCCCCCCCCCCCOC(=O)C[n+]1cccc(C(=O)NC)c1
survivor count [3]: 1 of 6
survivor count (T/C endpoint: mean survival time, dose: 200.0 mg/kg/injection, schedule: Q04DX003 (ip), vehicle: saline): 0 of 6
survivor count [4]: 0 of 6

O=NN(CCCCl)C(=O)Nc1ccccc1
survivor count (T/C endpoint: mean survival time, dose: 300.0 mg/kg/injection, schedule: Q01DX001 (ip), vehicle: carboxymethylcellulose (CMC)): 5 of 6
survivor count (T/C endpoint: mean survival time, dose: 400.0 mg/kg/injection, schedule: Q01DX001 (ip), vehicle: carboxymethylcellulose (CMC)): 4 of 6
survivor count (T/C endpoint: mean survival time, dose: 500.0 mg/kg/injection, schedule: Q01DX001 (ip), vehicle: carboxymethylcellulose (CMC)): 0 of 6
T/C (T/C endpoint: mean survival time, dose: 600.0 mg/kg/injection, schedule: Q01DX001 (ip), vehicle: carboxymethylcellulose (CMC)): 127 % of control [5 of 6 alive]
survivor count (T/C endpoint: mean survival time, dose: 800.0 mg/kg/injection, schedule: Q01DX001 (ip), vehicle: carboxymethylcellulose (CMC)): 0 of 6
survivor count (T/C endpoint: mean survival time, dose: 1000.0 mg/kg/injection, schedule: Q01DX001 (ip), vehicle: carboxymethylcellulose (CMC)): 0 of 6

Oc1cc(O)c(O)cc1O
survivor count (T/C endpoint: mean survival time, dose: 100.0 mg/kg/injection, schedule: Q04DX003 (ip), vehicle: saline with Tween-80): 1 of 6
survivor count [5]: 0 of 6
survivor count [6]: 0 of 6

CCO/C(=C\[P+](c1ccccc1)(c1ccccc1)c1ccccc1)c1ccccc1
survivor count (T/C endpoint: mean survival time, dose: 75.0 mg/kg/injection, schedule: Q01DX001 (ip), vehicle: saline): 0 of 6
survivor count [7]: 0 of 6
survivor count [8]: 0 of 6

NC1=C(Cl)C(=O)c2ccccc2C1=O
survivor count [5]: 0 of 6
survivor count [6]: 0 of 6

CN(CN1C(=O)CCC1=O)CN1C(=O)CCC1=O
survivor count (T/C endpoint: median survival time, dose: 800.0 mg/kg/injection, schedule: Q01DX005 (ip), vehicle: saline): 0 of 6

CCCCNC(=O)NCCc1ccc(OC)c(OC)c1
survivor count [2]: 4 of 6

CC(=O)Nc1cccc([N+](=O)[O-])c1
survivor count (T/C endpoint: mean survival time, dose: 400.0 mg/kg/injection, schedule: Q04DX003 (ip), vehicle: Klucel (hydroxypropylcellulose) (HPC)): 6 of 6

CCCCSP(=O)(CCl)SCCCC
survivor count [9]: 3 of 3
survivor count [10]: 1 of 3
survivor count [1]: 0 of 3

C=C1C(=O)OC2C1C(OC(=O)/C(=C/C)COC(C)=O)CC1(CO1)C1C(OC(=O)/C(=C/C)CO)C=C(C)C21 (configuration not stated)
survivor count (T/C endpoint: mean survival time, dose: 200.0 mg/kg/injection, schedule: Q01DX001 (ip), vehicle: saline with Tween-80): 6 of 6

O=C(Nc1ccccc1O)/C(Cl)=C/Cl
survivor count [11]: 5 of 6
survivor count [2]: 3 of 6

N#CO
survivor count (T/C endpoint: mean survival time, dose: 200.0 mg/kg/injection, schedule: Q01DX009 (ip), vehicle: saline sonified): 6 of 6
survivor count [4]: 0 of 6

CCN(CC)C(C)C(=O)Nc1c(C)cccc1Cl (configuration not stated)
survivor count (T/C endpoint: mean survival time, dose: 50.0 mg/kg/injection, schedule: Q01DX009 (ip), vehicle: saline): 6 of 6
survivor count (T/C endpoint: mean survival time, dose: 100.0 mg/kg/injection, schedule: Q01DX009 (ip), vehicle: saline): 6 of 6
survivor count (T/C endpoint: mean survival time, dose: 200.0 mg/kg/injection, schedule: Q01DX001 (ip), vehicle: saline): 0 of 6
survivor count (T/C endpoint: mean survival time, dose: 400.0 mg/kg/injection, schedule: Q01DX001 (ip), vehicle: saline): 0 of 6

CCN(CC)CCOc1ccc(C2=CC3(CCCCC3)c3ccccc32)cc1
survivor count (T/C endpoint: mean survival time, dose: 50.0 mg/kg/injection, schedule: Q04DX002 (ip), vehicle: saline with Tween-80): 0 of 3
survivor count [9]: 1 of 3
survivor count [10]: 1 of 3
survivor count [1]: 0 of 3

CN1CCN(C(=O)NCCCl)CC1
survivor count (T/C endpoint: mean survival time, dose: 20.0 mg/kg/injection, schedule: Q01DX009 (ip), vehicle: saline): 2 of 6

CCCCCC/C=N\N=C(N)N
survivor count [7]: 0 of 6
survivor count [8]: 0 of 6

CC[n+]1cccc2ccccc21
survivor count (T/C endpoint: mean survival time, dose: 50.0 mg/kg/injection, schedule: Q04DX003 (ip), vehicle: saline): 3 of 6
survivor count (T/C endpoint: mean survival time, dose: 75.0 mg/kg/injection, schedule: Q01DX009 (ip), vehicle: saline): 2 of 6
survivor count [3]: 0 of 6

CCCCCC(C)SC#N (configuration not stated)
survivor count [11]: 0 of 6
survivor count [2]: 0 of 6

C(=Nc1ccccc1)c1ccc(C=Nc2ccccc2)cc1
survivor count [2]: 6 of 6

Cc1cc2c(=O)[nH]cnc2[nH]1
survivor count (T/C endpoint: median survival time, dose: 200.0 mg/kg/injection, schedule: Q01DX005 (ip), vehicle: saline): 1 of 6

NC(N)=Nc1nc(N)nc(N)n1
survivor count (T/C endpoint: mean survival time, dose: 25.0 mg/kg/injection, schedule: Q01DX009 (ip), vehicle: saline with Tween-80): 3 of 3
survivor count (T/C endpoint: mean survival time, dose: 50.0 mg/kg/injection, schedule: Q01DX009 (ip), vehicle: saline with Tween-80): 0 of 3

C1OCC2[CH2][Hg][S][Hg][CH2]C1O2
survivor count (T/C endpoint: mean survival time, dose: 16.0 mg/kg/injection, schedule: Q01DX015 (ip), vehicle: saline): 0 of 6
survivor count (T/C endpoint: mean survival time, dose: 32.0 mg/kg/injection, schedule: Q01DX015 (ip), vehicle: saline): 0 of 6

NC(N)=NC(N)=Nc1ccc(Cl)c(Cl)c1
survivor count (T/C endpoint: mean survival time, dose: 225.0 mg/kg/injection, schedule: Q01DX009 (ip), vehicle: saline): 3 of 6
survivor count (T/C endpoint: mean survival time, dose: 335.0 mg/kg/injection, schedule: Q01DX009 (ip), vehicle: saline): 0 of 6

Cc1ccccc1CN1C2=NCCN2C(=O)C2=C1CCN(S(=O)(=O)c1ccc(Cl)c(S(N)(=O)=O)c1)C2
survivor count (T/C endpoint: median survival time, dose: 200.0 mg/kg/injection, schedule: Q01DX009 (ip), vehicle: saline): 6 of 6
